No constants are given. Whether binding was seen depends on the method and setting. Binding seen in cells or lysates may run through a third protein. Some entries that bind do so weakly or less than the wild type. For part of these data: Sequences can lack the tags named with a protein.
T1: Flag-ODC1 (in Ishikawa or AN3CA cells) (UniProt P11926)
T1 sequence: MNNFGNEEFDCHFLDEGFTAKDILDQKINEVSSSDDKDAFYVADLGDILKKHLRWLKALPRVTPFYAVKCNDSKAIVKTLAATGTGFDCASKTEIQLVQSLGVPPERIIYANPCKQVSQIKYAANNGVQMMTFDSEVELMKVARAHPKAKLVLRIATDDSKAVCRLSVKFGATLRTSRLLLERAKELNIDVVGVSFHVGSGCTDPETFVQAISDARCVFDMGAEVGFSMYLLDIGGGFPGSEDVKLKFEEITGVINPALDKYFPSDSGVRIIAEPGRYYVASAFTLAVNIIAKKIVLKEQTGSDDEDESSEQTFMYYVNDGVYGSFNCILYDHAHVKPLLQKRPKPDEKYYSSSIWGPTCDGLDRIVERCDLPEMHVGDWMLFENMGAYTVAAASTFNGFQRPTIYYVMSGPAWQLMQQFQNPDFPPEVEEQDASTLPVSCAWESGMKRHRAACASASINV

Amino acid sequences for entries named in this document (tags omitted). A change or cut given only in a name is not applied to a line headed by its entry. Residues count along the entry.
UniProt P17482: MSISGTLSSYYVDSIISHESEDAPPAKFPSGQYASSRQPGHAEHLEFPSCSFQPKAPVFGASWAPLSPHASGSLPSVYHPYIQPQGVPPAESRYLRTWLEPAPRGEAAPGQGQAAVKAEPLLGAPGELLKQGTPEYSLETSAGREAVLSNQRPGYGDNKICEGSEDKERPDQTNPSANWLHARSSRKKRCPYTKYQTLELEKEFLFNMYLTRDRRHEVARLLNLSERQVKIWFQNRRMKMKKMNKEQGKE
GST-HOXB9 1-184 segment: residues 1-184 of P17482
UniProt P54368: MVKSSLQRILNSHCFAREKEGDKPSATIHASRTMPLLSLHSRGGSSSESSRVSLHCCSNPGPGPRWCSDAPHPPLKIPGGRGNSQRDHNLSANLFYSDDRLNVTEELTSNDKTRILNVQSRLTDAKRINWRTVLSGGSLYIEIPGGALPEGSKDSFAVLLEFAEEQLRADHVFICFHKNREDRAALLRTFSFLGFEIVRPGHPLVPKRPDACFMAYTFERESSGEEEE

T2: Ornithine Decarboxylase 1 (ODC1), endogenous (human (endogenous in Ishikawa and AN3CA)) (UniProt P11926)
T2 sequence: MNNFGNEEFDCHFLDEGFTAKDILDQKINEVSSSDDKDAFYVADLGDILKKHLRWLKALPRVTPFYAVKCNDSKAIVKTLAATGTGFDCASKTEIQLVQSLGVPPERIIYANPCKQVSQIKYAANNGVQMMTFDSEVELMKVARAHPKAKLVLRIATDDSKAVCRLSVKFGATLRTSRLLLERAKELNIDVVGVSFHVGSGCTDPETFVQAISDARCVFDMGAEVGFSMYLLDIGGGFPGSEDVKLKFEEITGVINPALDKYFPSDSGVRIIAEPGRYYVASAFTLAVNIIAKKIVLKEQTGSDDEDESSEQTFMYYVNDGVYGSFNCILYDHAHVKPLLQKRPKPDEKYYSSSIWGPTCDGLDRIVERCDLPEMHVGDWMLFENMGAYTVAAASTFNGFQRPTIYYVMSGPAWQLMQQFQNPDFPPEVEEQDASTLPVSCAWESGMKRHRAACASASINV


Columns and labels:
[1] = target: T1, Flag-ODC1 (in Ishikawa or AN3CA cells); assay: co-IP; Ishikawa or AN3CA cells transfected with Flag-tagged plasmids (some with GFP-HOXB9 or HA-Ub; with or without OA 30 µM, putrescine 50 µM, MG132); lysate in weak RIPA buffer (1x PBS, pH 7.4, 1% NP40); anti-Flag affinity gel overnight at 4 °C; blot for the endogenous partner
[2] = target: T2, Ornithine Decarboxylase 1 (ODC1), endogenous (human (endogenous in Ishikawa and AN3CA)); assay: as above
[3] = target: Flag-HOXB9 (in Ishikawa or AN3CA cells) (UniProt P17482); assay: as above
[4] = target: Homeobox B9 (HOXB9), endogenous (human (endogenous in Ishikawa and AN3CA)) (UniProt P17482); assay: co-IP; endogenous proteins; Ishikawa (24 h OA) or AN3CA (48 h OA, 30 µM) lysate in weak RIPA buffer (1x PBS, pH 7.4, 1% NP40); anti-HOXB9 overnight at 4 °C, protein A or G agarose; blot anti-ODC1
Flag-OAZ1 = Flag-OAZ1 (UniProt P54368); assay: co-IP; Ishikawa or AN3CA cells transfected with Flag-tagged plasmids (some with GFP-HOXB9 or HA-Ub; with or without OA 30 µM, putrescine 50 µM, MG132); lysate in weak RIPA buffer (1x PBS, pH 7.4, 1% NP40); anti-Flag affinity gel overnight at 4 °C; blot for the endogenous partner
GST-HOXB9 1-184 segment = GST-HOXB9 1-184 segment (UniProt P17482); assay: pull-down; GST fusion proteins from Rosetta bacteria held on Glutathione-Sepharose 4B beads; incubated overnight with pre-cleared lysates of 293T cells transfected with Flag-tagged plasmids; washed with PBS; blot anti-Flag; only the target purified

binding [1]	binding [3]	Molecule	further results
binds		Homeobox B9 (HOXB9), endogenous (from UniProt P17482 1-250)	
binds		GFP-HOXB9 (from UniProt P17482 1-250)	binding [2]: binds
binds		ornithine decarboxylase antizyme 1 (OAZ1), endogenous (from UniProt P54368 1-228)	
	binds	E3 ligase Praja2, endogenous (enzyme, UniProt O43164 1-708) MSQYTEKEPAAMDQESGKAVWPKPAGGYQTITGRRYGRRHAYVSFKPCMTRHERSLGRAGDDYEVLELDDVPKENSSGSSPLDQVDSSLPSEPIFEKSETEIPTCGSALNQTTESSQSFVAVHHSEEGRDTLGSSTNLHNHSEGEYIPGACSASSVQNGIALVHTDSYDPDGKHGEDNDHLQLSAEVVEGSRYQESLGNTVFELENREAEAYTGLSPPVPSFNCEVRDEFEELDSVPLVKSSAGDTEFVHQNSQEIQRSSQDEMVSTKQQNNTSQERQTEHSPEDAACGPGHICSEQNTNDREKNHGSSPEQVVRPKVRKLISSSQVDQETGFNRHEAKQRSVQRWREALEVEESGSDDLLIKCEEYDGEHDCMFLDPPYSRVITQRETENNQMTSESGATAGRQEVDNTFWNGCGDYYQLYDKDEDSSECSDGEWSASLPHRFSGTEKDQSSSDESWETLPGKDENEPELQSDSSGPEEENQELSLQEGEQTSLEEGEIPWLQYNEVNESSSDEGNEPANEFAQPAFMLDGNNNLEDDSSVSEDLDVDWSLFDGFADGLGVAEAISYVDPQFLTYMALEERLAQAMETALAHLESLAVDVEVANPPASKESIDGLPETLVLEDHTAIGQEQCCPICCSEYIKDDIATELPCHHFFHKPCVSIWLQKSGTCPVCRRHFPPAVIEASAAPSSEPDPDAPPSNDSIAEAP	
	binds	Ornithine Decarboxylase 1 (ODC1), endogenous (enzyme, UniProt P11926 1-461) MNNFGNEEFDCHFLDEGFTAKDILDQKINEVSSSDDKDAFYVADLGDILKKHLRWLKALPRVTPFYAVKCNDSKAIVKTLAATGTGFDCASKTEIQLVQSLGVPPERIIYANPCKQVSQIKYAANNGVQMMTFDSEVELMKVARAHPKAKLVLRIATDDSKAVCRLSVKFGATLRTSRLLLERAKELNIDVVGVSFHVGSGCTDPETFVQAISDARCVFDMGAEVGFSMYLLDIGGGFPGSEDVKLKFEEITGVINPALDKYFPSDSGVRIIAEPGRYYVASAFTLAVNIIAKKIVLKEQTGSDDEDESSEQTFMYYVNDGVYGSFNCILYDHAHVKPLLQKRPKPDEKYYSSSIWGPTCDGLDRIVERCDLPEMHVGDWMLFENMGAYTVAAASTFNGFQRPTIYYVMSGPAWQLMQQFQNPDFPPEVEEQDASTLPVSCAWESGMKRHRAACASASINV	binding [4]: binds; binding (Flag-OAZ1): binds
		Flag-ODC1 (in 293T cells) (enzyme, UniProt P11926 1-461) MNNFGNEEFDCHFLDEGFTAKDILDQKINEVSSSDDKDAFYVADLGDILKKHLRWLKALPRVTPFYAVKCNDSKAIVKTLAATGTGFDCASKTEIQLVQSLGVPPERIIYANPCKQVSQIKYAANNGVQMMTFDSEVELMKVARAHPKAKLVLRIATDDSKAVCRLSVKFGATLRTSRLLLERAKELNIDVVGVSFHVGSGCTDPETFVQAISDARCVFDMGAEVGFSMYLLDIGGGFPGSEDVKLKFEEITGVINPALDKYFPSDSGVRIIAEPGRYYVASAFTLAVNIIAKKIVLKEQTGSDDEDESSEQTFMYYVNDGVYGSFNCILYDHAHVKPLLQKRPKPDEKYYSSSIWGPTCDGLDRIVERCDLPEMHVGDWMLFENMGAYTVAAASTFNGFQRPTIYYVMSGPAWQLMQQFQNPDFPPEVEEQDASTLPVSCAWESGMKRHRAACASASINV	binding (GST-HOXB9 1-184 segment): binds
